The chains behind the UniProt entries cited, without tags or fusion partners.
UniProt P53350, whole entry, looked up: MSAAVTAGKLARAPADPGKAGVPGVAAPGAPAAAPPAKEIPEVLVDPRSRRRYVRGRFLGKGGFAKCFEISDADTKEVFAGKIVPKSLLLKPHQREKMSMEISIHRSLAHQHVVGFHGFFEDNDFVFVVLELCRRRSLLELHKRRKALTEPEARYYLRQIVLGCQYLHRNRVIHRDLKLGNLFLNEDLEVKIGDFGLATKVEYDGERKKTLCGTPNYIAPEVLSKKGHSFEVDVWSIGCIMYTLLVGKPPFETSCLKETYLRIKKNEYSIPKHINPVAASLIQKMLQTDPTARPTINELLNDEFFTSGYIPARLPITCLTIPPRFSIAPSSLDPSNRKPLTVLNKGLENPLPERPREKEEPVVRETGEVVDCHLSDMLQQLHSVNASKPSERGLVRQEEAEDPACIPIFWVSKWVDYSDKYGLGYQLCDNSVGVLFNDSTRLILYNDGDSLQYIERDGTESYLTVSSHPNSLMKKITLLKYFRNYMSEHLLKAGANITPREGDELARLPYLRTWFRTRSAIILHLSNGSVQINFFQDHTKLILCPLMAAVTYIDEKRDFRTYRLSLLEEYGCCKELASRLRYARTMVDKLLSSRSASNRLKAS

Hit rate of the full screen: of about 360,000 compounds, about 10,000 (2.8%) were called active. Inconclusive results, whose numbers are uncertain, are shown with a selection of clear calls. Calls come from the whole dose curve; as a rule, active = well fitted inhibition curve with a large enough effect; inconclusive = small, poorly fitted or top-dose-only effect; inactive = flat fitted curve, though single readings scatter. Potencies beside an inconclusive call are fits to weak or partial responses and may not hold up.
Each molecule was assayed against Serine/threonine-protein kinase PLK1 (Homo sapiens) (UniProt P53350) (assay: qHTS for Inhibitors of PLK1-PDB (polo-like kinase 1 - polo-box domain): Primary Screen). Settings: Plk1 PBD binding of FITC phosphopeptide, fluorescence polarization.
In the case of `N#CC1=C(N)N(c2ccc(F)cc2)C2=C(C1c1ccc(O)cc1)S(=O)(=O)CC2` (stereo not drawn), the Potency is reported as active: 15 µM.
In the case of `Cc1oc(-c2ccc(Cl)cc2)cc1C(=O)N1CCC1(C)C(=O)O` (stereo not drawn), the Potency is reported as inconclusive: 29.9 µM [inhibitor, partial curve].
For `COc1cc(C2Nc3cccc4cccc(c34)N2)cc(OC)c1OC(C)=O`, the Potency was inconclusive: 26.7 µM [inhibitor, single point].
In the case of `Cc1coc2cc3oc(=O)c(CC(=O)N4C[C@H]5C[C@@H](C4)c4cccc(=O)n4C5)c(C)c3cc12`, the max response, negative = inhibition is reported as inactive: -2.95%.
With `CCC1=NN2C(=N)/C(=C\c3ccc(OCc4cc(=O)n5nc(CC)sc5n4)c(OC)c3)C(=O)N=C2S1` the Potency was inconclusive: 26.7 µM [inhibitor, partial curve].
`O=C(NCc1ccco1)/C(=C\c1ccco1)NC(=O)c1ccccc1Cl` was tested, and the max response, negative = inhibition was inactive: -8.35%.
For `O=c1cc(CN2CCN(c3ccccc3F)CC2)c2cc(O)c(-c3ccccc3)cc2o1`, the max response, negative = inhibition was inconclusive: -37.1% [inhibitor].
For `COc1ccc2nc(NC(=S)N(C)C)sc2c1`, the Potency was active: 5.32 µM.
In the case of `Cc1ccc(Cl)cc1N1CCN(C(=O)Cc2c(C(=O)O)[nH]c3ccc(Cl)cc23)CC1`, the Potency is reported as inconclusive: 23.8 µM [inhibitor, single point].
In the case of `O=C(COc1ccc(C(=S)N2CCOCC2)cc1Cl)Nc1ccccc1Cl`, the Potency is reported as inconclusive: 16.8 µM [inhibitor, partial curve].
With `O=C(O)CSc1cc(C(=O)c2ccccc2O)cn2c(=O)c3c4c(sc3nc12)CCCC4` the Potency was inconclusive: 16.8 µM [inhibitor, partial curve].
With `Cc1c(N2C(=O)/C(=C\c3ccccc3O)SC2=S)c(=O)n(-c2ccccc2)n1C` the Potency was active: 1.68 µM.
In the case of `O=C1C(C2=C(O)c3ccccc3C2=O)=Nc2ccccc21`, the Potency is reported as inconclusive: 9.47 µM [inhibitor, partial curve].
With `CN1CCN(Cc2nc3c(c(=O)n(C)c(=O)n3C)n2CCCc2ccccc2)CC1` the max response, negative = inhibition was inactive: -4.61%.
In the case of `CC1(C#CC[N+]2(C)CCCCC2)CCC2C(O1)c1ccccc1OC2(C)C` (stereo not drawn), the Potency is reported as inconclusive: 26.7 µM [inhibitor, single point].
For `COC(=O)N1C(=O)[C@@](c2ccccc2)(C2CCCC2)N1C(=O)OC`, the Potency was inconclusive: 26.7 µM [inhibitor, partial curve].
For `CCCc1cc2c(-c3ccccc3)cc(=O)oc2cc1OCc1ccc(C(=O)O)o1`, the Potency was active: 23.8 µM.
`Cc1ccc(CNS(=O)(=O)c2ccc3c(c2)NC(=O)CO3)cc1` was tested, and the max response, negative = inhibition was inconclusive: -26.6% [inhibitor].
`COc1cccc(C(c2sc3nc(C)nn3c2O)N2CCc3ccccc3C2)c1` (stereo not drawn) was tested, and the Potency was inconclusive: 26.7 µM [inhibitor, single point].
`COc1ccc(NC(=O)CCN2CCN(S(=O)(=O)c3ccc(OC)cc3)CC2)cc1` was tested, and the Potency was inconclusive: 37.7 µM [inhibitor, single point].
With `C/C(=N\NC(=O)CC(C)C)c1c(C(F)(F)F)[nH]n(-c2nc3ccccc3s2)c1=O` the Potency was inconclusive: 26.7 µM [inhibitor, single point].
With `Cc1ccc(OCC(=O)Nc2ccccc2N2CCCC2)c(C)c1` the max response, negative = inhibition was inactive: -12.7%.
In the case of `O=S(=O)(Nc1ccc(S(=O)(=O)Nc2ccccc2)cc1)c1ccccc1`, the max response, negative = inhibition is reported as inactive: -2.02%.
With `O=c1c([N+](=O)[O-])c(N2CCOCC2)c2ccccc2n1Cc1ccccc1` the Potency was inconclusive: 26.7 µM [inhibitor, single point].
In the case of `COc1ccccc1-n1cnc2cc(NCc3ccccc3O)ccc21`, the Potency is reported as active: 18.9 µM.
In the case of `COc1cc(C(=O)Nc2ccc(S(=O)(=O)Nc3onc(C)c3C)cc2)cc(OC)c1OC`, the Potency is reported as inconclusive: 33.6 µM [inhibitor, partial curve].
For `CCCOc1cccc(/C=N/NC(=O)c2csc(C)c2C)c1`, the Potency was inconclusive: 23.8 µM [inhibitor, partial curve].
With `Clc1ccc(-n2cc(-c3ccc(Br)cc3)[n+]3c2CCCCC3)cc1` the max response, negative = inhibition was inactive: 0.859%.
For `S=c1nccc(-c2ccc3c(c2)CCO3)[nH]1`, the Potency was inconclusive: 11.9 µM [inhibitor, partial curve].
`CSc1ccccc1NC(=O)c1cc(C2CC2)on1` was tested, and the Potency was inconclusive: 26.7 µM [inhibitor, partial curve].
In the case of `CC(C)n1c(/C=C/[C@H](O)C[C@H](O)CC(=O)O)c(-c2ccc(F)cc2)c2ccccc21`, the max response, negative = inhibition is reported as inactive: -7.14%.
In the case of `CCOC(=O)Nc1ccc2c(c1)C(=NNC(=S)NC)c1ccccc1-2`, the max response, negative = inhibition is reported as inactive: -3.24%.
In the case of `Cc1ccc(-c2csc(NC(=O)COC(=O)c3cccc(S(=O)(=O)N4CCOCC4)c3)n2)cc1`, the Potency is reported as inconclusive: 18.9 µM [inhibitor, partial curve].
For `Nc1c(Cl)cc(C(=O)NC2CC2)cc1Cl`, the max response, negative = inhibition was inactive: -22.8%.
With `Cc1[nH]c2ccccc2c1CCCO` the max response, negative = inhibition was inactive: -10.2%.
With `O=C1CCS/C(=N\N=C\c2ccc(Cl)cc2Cl)N1` the max response, negative = inhibition was inactive: 0.181%.
For `COc1ccc(S(=O)(=O)Nc2cc(SCC(=O)O)c(O)c3ccccc23)cc1`, the Potency was active: 1.5 µM.
With `CC(C)CN(C(=O)COc1cccc(-n2cnnn2)c1)C1CCS(=O)(=O)C1` (stereo not drawn) the Potency was inconclusive: 26.7 µM [inhibitor, partial curve].
`CCN(CC)CCn1c(O)c(N=O)c2ccccc21` was tested, and the max response, negative = inhibition was inactive: -4.01%.
`CCOc1ccc(/C=C2\SC(=S)N(CCC(=O)Nc3ccc(C(=O)O)cc3)C2=O)cc1` was tested, and the Potency was inconclusive: 29.9 µM [inhibitor, partial curve].
For `Nc1nc(-c2cccc(Br)c2)cs1`, the Potency was inconclusive: 11.9 µM [inhibitor, partial curve].
With `Cn1c(-c2ccccc2)c(C(=O)CCl)c2ccccc21` the Potency was inconclusive: 21.2 µM [inhibitor, partial curve].
`O=C(O)c1cc(O)c2c(c1)[C@@H]([C@H]1c3cc(C(=O)O)cc(O)c3C(=O)c3c(O[C@@H]4O[C@H](CO)[C@@H](O)[C@H](O)[C@H]4O)cccc31)c1cccc(OC3O[C@H](CO)[C@@H](O)[C@H](O)[C@H]3O)c1C2=O` (stereo partly drawn) was tested, and the Potency was active: 0.844 µM.
% is set by controls: 0 for no effect and ±100 for the full control effect; potency is the fitted concentration of half-maximal effect.
Note: nearly all actives have a fitted effect of over 65% in size.
Throughout, for max response, negative = inhibition: series mostly up to about 57 µM.
